Laboratory results as given in US5939526A, “Isolated RAGE-1 derived peptides which complex with HLA-B7 molecules and uses thereof” (Ludwig Institute for Cancer Research, priority 1995, dated 1999).
At least one peptide structure holds a part that was inferred or is arguable (an end, a ring closure or a residue). Ends that are not written are not given here.

Tested on: CTL 263/17 cells (HLA-B7/peptide complex)
Test: TNF release from CTL 263/17 with HLA-B7-transfected COS-7 cells plus synthetic peptide
Assay type: cell-based, human
Conditions: COS-7 cells transfected with HLA-B7, peptide added, TNF measured after 18 hours (FIG. 8)

| Sequence | stimulation of TNF release from / recognition by CTL 263/17 |
| --- | --- |
| SPSSNRIRNT [SEQ.ID.NO.26, SPSSNRIRNT] | very efficiently recognized by CTL 263/17 |
| SPSSNRIRNTST [SEQ.ID.NO.22, SPSSNRIRNTST] | efficiently stimulated the release of TNF |
| SPSSNRIRN [SEQ.ID.NO.23, SPSSNRIRN] | recognized by CTL 263/17, but to a far lesser extent than the dodecameric peptide |
